Assay results from publication PMC4203807.

Tests used:
[1] = biological target: T1, GST-AP180 C1 (isolated ∼16 kDa C-terminal sub-domain, 730–896) (mouse) (UniProt Q61548); assay: pull-down; GST-AP180 sequences (∼10 µg) on GSH-Sepharose beads as bait; 2 µg purified bovine brain clathrin as the only other protein; same lysis buffer (1% Triton X-100); 4°C, 4 h; Western blot for CHC; both purified
T1 sequence: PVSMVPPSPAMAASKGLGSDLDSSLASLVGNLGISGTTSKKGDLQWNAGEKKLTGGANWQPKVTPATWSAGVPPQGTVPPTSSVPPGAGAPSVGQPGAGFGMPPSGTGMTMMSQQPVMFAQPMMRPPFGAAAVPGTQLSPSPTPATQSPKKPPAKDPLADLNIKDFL

[2] = biological target: T2, GST-AP180 C½ (493–896) (mouse) (UniProt Q61548); assay: as above
T2 sequence: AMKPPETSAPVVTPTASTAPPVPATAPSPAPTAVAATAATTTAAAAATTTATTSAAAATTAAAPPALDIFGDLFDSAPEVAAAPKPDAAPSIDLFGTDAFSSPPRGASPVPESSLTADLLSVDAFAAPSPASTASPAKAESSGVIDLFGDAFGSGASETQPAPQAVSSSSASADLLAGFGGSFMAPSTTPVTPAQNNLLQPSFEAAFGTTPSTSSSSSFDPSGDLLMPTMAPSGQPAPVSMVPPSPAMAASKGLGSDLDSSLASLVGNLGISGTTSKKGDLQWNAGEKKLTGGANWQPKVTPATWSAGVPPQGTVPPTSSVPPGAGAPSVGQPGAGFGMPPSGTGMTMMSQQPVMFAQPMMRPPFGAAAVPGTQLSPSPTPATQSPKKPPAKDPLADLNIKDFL

[3] = biological target: T3, GST-AP180 FL (codon optimised, de-tagged: no 6His) (mouse) (UniProt Q61548); assay: as above
T3 sequence: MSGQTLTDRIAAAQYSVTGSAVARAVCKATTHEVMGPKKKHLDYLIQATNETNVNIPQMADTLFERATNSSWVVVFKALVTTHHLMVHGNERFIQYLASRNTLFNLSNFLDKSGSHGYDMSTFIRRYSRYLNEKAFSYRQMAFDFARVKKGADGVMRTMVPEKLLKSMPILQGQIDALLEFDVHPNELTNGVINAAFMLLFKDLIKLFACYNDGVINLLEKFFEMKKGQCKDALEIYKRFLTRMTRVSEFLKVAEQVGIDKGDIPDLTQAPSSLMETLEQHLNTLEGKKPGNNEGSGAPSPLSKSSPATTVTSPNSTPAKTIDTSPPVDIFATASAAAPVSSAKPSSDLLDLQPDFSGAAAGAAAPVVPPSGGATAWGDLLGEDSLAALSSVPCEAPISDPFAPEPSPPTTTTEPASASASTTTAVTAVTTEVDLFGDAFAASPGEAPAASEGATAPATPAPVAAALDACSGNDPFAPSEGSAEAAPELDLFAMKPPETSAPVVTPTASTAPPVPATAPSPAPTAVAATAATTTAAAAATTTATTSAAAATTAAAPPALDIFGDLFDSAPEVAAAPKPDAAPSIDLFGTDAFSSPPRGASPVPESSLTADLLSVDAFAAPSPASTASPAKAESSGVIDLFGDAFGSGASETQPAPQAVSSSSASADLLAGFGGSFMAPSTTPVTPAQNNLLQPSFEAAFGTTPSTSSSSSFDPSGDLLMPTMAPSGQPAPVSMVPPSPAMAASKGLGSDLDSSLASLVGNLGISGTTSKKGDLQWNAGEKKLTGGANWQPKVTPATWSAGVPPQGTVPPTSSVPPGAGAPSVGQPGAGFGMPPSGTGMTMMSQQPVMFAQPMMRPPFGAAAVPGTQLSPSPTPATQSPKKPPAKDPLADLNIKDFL

[4] = biological target: T4, GST-AP180 FL-6His (mouse) (UniProt Q61548); assay: as above
T4 sequence: T3 sequence

[5] = biological target: T5, GST-AP180 FL-T2 (mouse) (UniProt Q61548); assay: as above
T5 sequence: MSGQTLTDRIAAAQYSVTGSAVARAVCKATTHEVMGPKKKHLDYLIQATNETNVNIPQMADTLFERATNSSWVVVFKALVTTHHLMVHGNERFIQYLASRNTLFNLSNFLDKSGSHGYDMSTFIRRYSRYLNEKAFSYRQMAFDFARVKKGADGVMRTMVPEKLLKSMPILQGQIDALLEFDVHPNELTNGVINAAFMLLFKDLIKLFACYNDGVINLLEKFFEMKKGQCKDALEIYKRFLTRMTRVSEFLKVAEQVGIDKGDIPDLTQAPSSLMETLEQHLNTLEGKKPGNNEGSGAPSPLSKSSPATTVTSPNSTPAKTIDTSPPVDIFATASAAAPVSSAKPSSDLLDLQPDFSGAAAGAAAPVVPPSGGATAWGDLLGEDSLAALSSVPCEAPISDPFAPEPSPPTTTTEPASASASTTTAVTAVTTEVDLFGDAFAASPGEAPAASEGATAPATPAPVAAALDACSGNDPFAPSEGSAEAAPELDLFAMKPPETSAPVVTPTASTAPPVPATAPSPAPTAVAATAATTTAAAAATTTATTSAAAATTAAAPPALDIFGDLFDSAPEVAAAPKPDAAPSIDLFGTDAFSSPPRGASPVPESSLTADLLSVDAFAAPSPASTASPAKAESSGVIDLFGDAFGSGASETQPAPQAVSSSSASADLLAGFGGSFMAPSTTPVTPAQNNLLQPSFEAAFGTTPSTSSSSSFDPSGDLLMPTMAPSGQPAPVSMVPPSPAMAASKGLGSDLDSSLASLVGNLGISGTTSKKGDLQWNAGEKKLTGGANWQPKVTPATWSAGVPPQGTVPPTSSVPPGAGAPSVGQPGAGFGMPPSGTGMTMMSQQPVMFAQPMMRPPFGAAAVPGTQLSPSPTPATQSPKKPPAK

[6] = biological target: T6, GST-AP180 M1 (isolated CLAP sub-domain, 287–730) (mouse) (UniProt Q61548); assay: as above
T6 sequence: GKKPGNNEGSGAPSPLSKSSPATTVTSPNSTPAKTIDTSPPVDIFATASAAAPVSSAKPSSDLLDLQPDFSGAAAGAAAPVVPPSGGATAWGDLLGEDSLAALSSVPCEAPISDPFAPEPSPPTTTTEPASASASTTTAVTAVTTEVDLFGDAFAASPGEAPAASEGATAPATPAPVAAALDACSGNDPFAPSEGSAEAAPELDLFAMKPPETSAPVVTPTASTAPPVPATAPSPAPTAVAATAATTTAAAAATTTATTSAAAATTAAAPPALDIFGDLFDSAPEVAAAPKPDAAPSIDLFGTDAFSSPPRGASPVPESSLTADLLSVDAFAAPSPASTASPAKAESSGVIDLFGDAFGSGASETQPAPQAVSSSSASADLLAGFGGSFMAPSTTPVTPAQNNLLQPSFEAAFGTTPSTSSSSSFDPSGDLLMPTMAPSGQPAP

[7] = biological target: T7, GST-AP180 FL-T3 (mouse) (UniProt Q61548); assay: condition: 2 µg of purified clathrin; ∼10 µg of bead-bound protein; pull-down; GST-AP180 sequences (∼10 µg) on GSH-Sepharose beads as bait; 2 µg purified bovine brain clathrin as the only other protein; same lysis buffer (1% Triton X-100); 4°C, 4 h; Western blot for CHC; both purified
T7 sequence: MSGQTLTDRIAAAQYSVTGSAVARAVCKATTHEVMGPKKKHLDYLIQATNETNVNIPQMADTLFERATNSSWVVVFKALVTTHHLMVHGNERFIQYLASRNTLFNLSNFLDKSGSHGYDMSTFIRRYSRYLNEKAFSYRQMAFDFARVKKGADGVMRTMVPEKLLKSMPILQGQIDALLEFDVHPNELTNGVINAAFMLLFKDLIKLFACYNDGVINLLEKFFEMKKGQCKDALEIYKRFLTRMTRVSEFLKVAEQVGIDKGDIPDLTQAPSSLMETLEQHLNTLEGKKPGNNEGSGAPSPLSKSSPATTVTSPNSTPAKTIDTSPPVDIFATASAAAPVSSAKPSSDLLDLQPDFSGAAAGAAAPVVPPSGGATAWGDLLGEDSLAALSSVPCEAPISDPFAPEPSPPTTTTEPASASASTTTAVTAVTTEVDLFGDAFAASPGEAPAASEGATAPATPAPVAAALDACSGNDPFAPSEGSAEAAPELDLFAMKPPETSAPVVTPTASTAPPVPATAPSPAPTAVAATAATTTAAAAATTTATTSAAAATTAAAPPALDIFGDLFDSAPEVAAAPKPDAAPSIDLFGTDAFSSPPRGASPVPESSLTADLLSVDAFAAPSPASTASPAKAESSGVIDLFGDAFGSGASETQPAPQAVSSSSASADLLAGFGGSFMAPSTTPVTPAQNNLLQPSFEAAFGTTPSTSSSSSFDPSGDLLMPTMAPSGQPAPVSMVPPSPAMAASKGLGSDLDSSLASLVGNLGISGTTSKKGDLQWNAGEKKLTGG

[8] = biological target: T8, GST-AP180 N½ (1–530) (mouse) (UniProt Q61548); assay: as above
T8 sequence: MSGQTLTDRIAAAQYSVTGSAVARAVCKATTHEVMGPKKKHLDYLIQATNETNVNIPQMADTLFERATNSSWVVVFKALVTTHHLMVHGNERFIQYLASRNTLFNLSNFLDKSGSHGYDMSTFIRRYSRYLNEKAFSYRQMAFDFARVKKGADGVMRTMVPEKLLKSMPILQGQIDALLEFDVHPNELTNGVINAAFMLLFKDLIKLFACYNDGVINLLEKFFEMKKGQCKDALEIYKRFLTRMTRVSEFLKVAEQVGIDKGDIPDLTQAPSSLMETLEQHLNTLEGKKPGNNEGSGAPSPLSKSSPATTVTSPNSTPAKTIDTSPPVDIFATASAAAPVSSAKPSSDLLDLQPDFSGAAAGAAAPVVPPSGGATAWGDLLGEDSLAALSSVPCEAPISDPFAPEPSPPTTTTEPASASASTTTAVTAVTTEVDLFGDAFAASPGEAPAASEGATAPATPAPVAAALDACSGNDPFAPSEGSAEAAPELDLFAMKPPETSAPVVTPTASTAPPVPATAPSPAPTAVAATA

purified clathrin from bovine brain (complex)
binding [1]: binds weakly
binding [2]: binds
binding [3]: binds
binding [4]: binds
binding [5]: binds
binding [6]: binds weakly
binding [7]: no binding
binding [8]: no binding

Results are given in words; binding and its absence hold for the method and conditions named. For some assays here: Binding can be weak; no strength is given. Tags and fused reporters may be left off the sequences shown.
